The values below come from publication PMC7311471, “The iron–sulphur cluster in human DNA2 is required for all biochemical activities of DNA2”.

By UniProt entry, the sequences of proteins in these tests, tags left out. Where a name states a change or a piece, a line headed by the entry shows the natural chain unless it says otherwise.
UniProt P38859: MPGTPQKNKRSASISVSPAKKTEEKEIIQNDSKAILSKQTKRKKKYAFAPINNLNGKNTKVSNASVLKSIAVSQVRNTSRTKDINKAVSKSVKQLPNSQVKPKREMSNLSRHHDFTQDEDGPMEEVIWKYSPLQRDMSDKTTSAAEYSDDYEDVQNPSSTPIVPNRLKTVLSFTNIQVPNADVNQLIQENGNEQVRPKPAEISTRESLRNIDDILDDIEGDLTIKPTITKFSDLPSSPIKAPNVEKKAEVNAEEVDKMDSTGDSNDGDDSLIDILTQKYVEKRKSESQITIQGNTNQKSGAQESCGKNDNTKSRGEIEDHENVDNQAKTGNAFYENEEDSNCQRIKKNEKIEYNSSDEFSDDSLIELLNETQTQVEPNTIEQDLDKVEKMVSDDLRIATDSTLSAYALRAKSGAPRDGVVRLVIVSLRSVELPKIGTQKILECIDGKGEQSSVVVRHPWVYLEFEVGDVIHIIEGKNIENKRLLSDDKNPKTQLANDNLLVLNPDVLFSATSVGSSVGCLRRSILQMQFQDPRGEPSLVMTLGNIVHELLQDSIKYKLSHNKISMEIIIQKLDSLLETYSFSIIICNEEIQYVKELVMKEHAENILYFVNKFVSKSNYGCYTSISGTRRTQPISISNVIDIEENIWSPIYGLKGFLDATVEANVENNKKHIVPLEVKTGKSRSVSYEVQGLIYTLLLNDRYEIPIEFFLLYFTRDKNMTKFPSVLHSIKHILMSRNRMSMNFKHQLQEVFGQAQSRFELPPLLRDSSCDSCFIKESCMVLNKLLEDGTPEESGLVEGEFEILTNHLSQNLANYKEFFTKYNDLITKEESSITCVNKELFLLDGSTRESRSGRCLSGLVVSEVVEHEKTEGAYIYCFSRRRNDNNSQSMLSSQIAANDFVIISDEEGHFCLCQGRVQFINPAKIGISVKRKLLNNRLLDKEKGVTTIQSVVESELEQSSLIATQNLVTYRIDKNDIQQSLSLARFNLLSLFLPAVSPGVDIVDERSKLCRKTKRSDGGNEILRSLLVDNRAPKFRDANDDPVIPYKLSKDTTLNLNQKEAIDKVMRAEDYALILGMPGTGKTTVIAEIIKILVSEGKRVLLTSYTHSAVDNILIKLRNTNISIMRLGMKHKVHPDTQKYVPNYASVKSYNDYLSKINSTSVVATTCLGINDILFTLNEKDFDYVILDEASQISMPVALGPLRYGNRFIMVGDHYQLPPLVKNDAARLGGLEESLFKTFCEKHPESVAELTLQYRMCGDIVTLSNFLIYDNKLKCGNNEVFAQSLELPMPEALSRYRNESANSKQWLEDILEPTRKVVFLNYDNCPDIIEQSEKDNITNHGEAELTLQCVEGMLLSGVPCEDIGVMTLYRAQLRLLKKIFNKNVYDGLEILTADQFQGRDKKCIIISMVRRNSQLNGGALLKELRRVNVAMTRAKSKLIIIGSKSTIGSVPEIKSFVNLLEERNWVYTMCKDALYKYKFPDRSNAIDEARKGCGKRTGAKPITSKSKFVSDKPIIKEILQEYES

Changes are numbered by the printed parent chain. Construct, isoform or probe ends are uncertain for at least one entry. The comparison behind a weaker result is the experiment's own reference, which may not be listed here. For some of these results: At least one verdict rests on a figure or table, not on a statement of the authors. For some of these results: Where a protein sequence is shown, tags need not be part of it.

Experiment in all cases: EMSA
One data set has as its target T1, DNA2 C743S (human) (UniProt P51530).
T1 sequence (looked up): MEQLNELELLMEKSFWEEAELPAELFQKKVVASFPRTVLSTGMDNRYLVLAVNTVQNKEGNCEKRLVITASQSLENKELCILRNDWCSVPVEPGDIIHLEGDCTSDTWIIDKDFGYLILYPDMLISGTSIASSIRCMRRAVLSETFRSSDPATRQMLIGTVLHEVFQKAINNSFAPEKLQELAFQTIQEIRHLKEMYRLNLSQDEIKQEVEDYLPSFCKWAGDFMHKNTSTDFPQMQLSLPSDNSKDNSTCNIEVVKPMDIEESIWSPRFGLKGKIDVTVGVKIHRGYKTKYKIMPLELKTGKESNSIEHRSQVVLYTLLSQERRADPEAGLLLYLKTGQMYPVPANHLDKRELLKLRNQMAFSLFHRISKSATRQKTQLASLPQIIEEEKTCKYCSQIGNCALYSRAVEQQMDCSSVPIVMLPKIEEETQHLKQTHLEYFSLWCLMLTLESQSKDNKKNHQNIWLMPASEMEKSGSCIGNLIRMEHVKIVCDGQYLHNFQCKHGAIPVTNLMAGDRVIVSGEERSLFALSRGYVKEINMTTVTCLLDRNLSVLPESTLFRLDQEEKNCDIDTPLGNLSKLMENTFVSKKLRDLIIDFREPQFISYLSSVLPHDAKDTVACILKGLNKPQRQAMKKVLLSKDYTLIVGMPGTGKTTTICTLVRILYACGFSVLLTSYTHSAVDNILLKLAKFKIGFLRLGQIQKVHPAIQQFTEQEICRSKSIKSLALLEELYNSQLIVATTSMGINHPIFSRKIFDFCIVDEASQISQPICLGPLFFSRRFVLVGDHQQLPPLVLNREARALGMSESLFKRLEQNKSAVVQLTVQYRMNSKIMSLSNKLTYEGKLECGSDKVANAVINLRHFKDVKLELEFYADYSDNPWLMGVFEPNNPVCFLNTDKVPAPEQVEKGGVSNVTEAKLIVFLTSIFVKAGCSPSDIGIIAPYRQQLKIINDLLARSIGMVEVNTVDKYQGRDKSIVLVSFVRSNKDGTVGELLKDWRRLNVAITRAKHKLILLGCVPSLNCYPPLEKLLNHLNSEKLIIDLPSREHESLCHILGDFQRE
Particulars: 100 nM protein, H2O2, remains sensitive to oxidation; EMSA: 25 mM Tris-HCl pH 8.0, 0.1 mg/ml BSA, 5 mM EDTA, with or without 1 mM DTT, 30 min on ice; 4-5 nM FAM-DNA or 1 nM 32P-DNA; recombinant protein; residues 1-1060; protein details: FLAG; label: FAM (strand and end not shown). (In general: A gel shift assay detects complexes by their altered migration in electrophoresis.)

A further data set concerns the target T2, DNA2 C136S (human) (UniProt P51530).
T2 sequence (looked up): T1 sequence (looked up) with C136S, S743C
Particulars: 20 and 100 nM protein; EMSA: 25 mM Tris-HCl pH 8.0, 0.1 mg/ml BSA, 5 mM EDTA, with or without 1 mM DTT, 30 min on ice; 4-5 nM FAM-DNA or 1 nM 32P-DNA; recombinant protein; residues 1-1060; protein details: His6 and FLAG; label: FAM (strand and end not shown).

The target of data set [1] is yeast Dna2 (S. cerevisiae) (UniProt P38859). Particulars: 182 nM protein, EMSA: 25 mM Tris-HCl pH 8.0, 0.1 mg/ml BSA, 5 mM EDTA, with or without 1 mM DTT, 30 min on ice, 4-5 nM FAM-DNA or 1 nM 32P-DNA, recombinant protein, protein details: N-terminal FLAG/HA, C-terminal His6, label: FAM (strand and end not shown).

Consider “ATCGATAGTCGGATCCTCTAGACAGCTCCATGTAGCAAGGCACTGGTAGAATTCGGCAGCGT / GACGCTGCCGAATTCTACCAGTGCCTTGCTAGGACATCTTTGCCCACCTGCAGGTTCACCC / TGGGTGAACCTGCAGGTGGGCAAAGATGTCC [5' flap (FAM)]”, for which the binding result is on record as “binds more weakly” in the data set with DNA2 C743S (human), “binds more weakly” with DNA2 C136S (human), “binds more weakly” in data set [1] (H2O2) and “binds” in data set [1] (no H2O2).
